PubChem BioAssay AID1159597 – NIAID | 2016
The whole screen tested 756 reagents; shown is a part drawn at random. 140 of them (19%) count as active. 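Calls mark clear shifts in either direction, lowered or raised; calls are per siRNA, gene-level medians over six siRNAs not deposited.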 Reagents against one gene are numbered here. Reagent sequences are not shown. Not stated in the record: the amount of reagent.

Purpose: 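Which TLR pathway components are needed for LPS-driven TNF promoter activity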
System: human THP-1 B5 reporter clone (monocytic leukaemia line), PMA-differentiated to macrophage-like cells
Reagents: single siRNA against human genes
Timing: LPS for 4 h before read-out; assayed 48 to 72 h after siRNA transfection
Challenge: LPS (Salmonella minnesota R595) for 4 h; concentration not given
Measurement: 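After 4 h LPS, firefly TNF promoter luciferase over renilla, as a plate median/MAD robust z-score averaged across replicates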
Reading the numbers: TNF reporter z-score: higher = stronger TNF promoter activity after LPS
Call rule: In these data the active calls have TNF reporter z-score, replicate mean at about -1.5 or lower, or at about 1.53 or higher
Calls: active = clear shift in reporter, either direction; inactive = little shift in reporter

target gene	reagent no.	TNF reporter z-score, replicate mean	call
MAP2K3	1	0.451	inactive
MAP2K3	2	-0.853	inactive
MAP2K3	3	-1.39	inactive
MAP2K3	4	-1.28	inactive
MAP2K3	5	-0.444	inactive
MAP2K3	6	-3.33	active
SP1	1	-3.9	active
SP1	2	-1.61	active
SP1	3	0.877	inactive
SP1	4	1.71	active
SP1	5	0.973	inactive
SP1	6	-0.392	inactive
MAPK10	1	0.123	inactive
MAPK10	2	-0.904	inactive
MAPK10	3	-0.133	inactive
MAPK10	4	-0.438	inactive
MAPK10	5	0.424	inactive
MAPK10	6	-0.228	inactive
ELK4	1	-0.961	inactive
ELK4	2	-0.532	inactive
ELK4	3	0.361	inactive
ELK4	4	0.404	inactive
ELK4	5	-0.631	inactive
ELK4	6	-1.15	inactive
ITGAM	1	-1.22	inactive
ITGAM	2	-0.927	inactive
ITGAM	3	0.0983	inactive
ITGAM	4	-0.758	inactive
ITGAM	5	0.316	inactive
ITGAM	6	0.093	inactive
SIGIRR	1	-0.428	inactive
SIGIRR	2	-0.405	inactive
SIGIRR	3	-0.287	inactive
SIGIRR	4	0.196	inactive
SIGIRR	5	-0.434	inactive
SIGIRR	6	-0.238	inactive
CYLD	1	-2.81	active
CYLD	2	-4.25	active
CYLD	3	-0.363	inactive
CYLD	4	-0.998	inactive
CYLD	5	-2.24	active
CYLD	6	-1.73	active
IL12A	1	0.179	inactive
IL12A	2	0.104	inactive
IL12A	3	-3.37	active
IL12A	4	-0.376	inactive
IL12A	5	-1.33	inactive
IL12A	6	-0.36	inactive
IRAK4	1	-0.082	inactive
IRAK4	2	1.02	inactive
IRAK4	3	0.622	inactive
IRAK4	4	-0.553	inactive
IRAK4	5	-0.37	inactive
IRAK4	6	0.0448	inactive
NFKB2	1	-0.654	inactive
NFKB2	2	-0.32	inactive
NFKB2	3	1.71	active
NFKB2	4	-0.348	inactive
NFKB2	5	-2.6	active
NFKB2	6	-1.33	inactive
TICAM1	1	-1.73	active
TICAM1	2	-1.82	active
TICAM1	3	-1.98	active
TICAM1	4	-2.71	active
TICAM1	5	-1.43	inactive
TICAM1	6	-1.01	inactive
ITGAX	1	-1.13	inactive
ITGAX	2	0.0372	inactive
ITGAX	3	-0.423	inactive
ITGAX	4	-2.56	active
ITGAX	5	-1.25	inactive
ITGAX	6	-0.645	inactive

Already shown: entries from further up.
target gene	reagent no.	TNF reporter z-score, replicate mean	call
MAP2K3	2	-0.853	inactive
MAP2K3	3	-1.39	inactive
MAP2K3	4	-1.28	inactive
MAP2K3	5	-0.444	inactive
MAP2K3	6	-3.33	active
SP1	1	-3.9	active
SP1	2	-1.61	active

The listing continues.
target gene	reagent no.	TNF reporter z-score, replicate mean	call
RELA	1	-1.78	active
RELA	2	-0.873	inactive
RELA	3	-1.1	inactive
RELA	4	-1.31	inactive
RELA	5	-0.454	inactive
RELA	6	-2.6	active
LY86	1	-0.438	inactive
LY86	2	-1.42	inactive
LY86	3	-0.551	inactive
LY86	4	-1.21	inactive
LY86	5	-0.658	inactive
LY86	6	-0.193	inactive
TBKBP1	1	0.246	inactive
TBKBP1	2	0.935	inactive
TBKBP1	3	1.14	inactive
TBKBP1	4	1.28	inactive
TBKBP1	5	0.629	inactive
TBKBP1	6	-0.112	inactive
RIPK3	1	-0.335	inactive
RIPK3	2	-0.327	inactive
RIPK3	3	0.0916	inactive
RIPK3	4	-0.642	inactive
RIPK3	5	0.459	inactive
RIPK3	6	0.28	inactive
NFKB1	1	-0.828	inactive
NFKB1	2	1.08	inactive
NFKB1	3	-0.37	inactive
NFKB1	4	-0.82	inactive
NFKB1	5	1.32	inactive
NFKB1	6	-0.162	inactive
TRAF3	1	-0.903	inactive
TRAF3	2	-0.726	inactive
TRAF3	3	-1.19	inactive
TRAF3	4	-0.832	inactive
TRAF3	5	-0.485	inactive
TRAF3	6	0.159	inactive
TAB3	1	-0.7	inactive
TAB3	2	-0.613	inactive
TAB3	3	-0.391	inactive
TAB3	4	0.591	inactive
TAB3	5	0.574	inactive
TAB3	6	0.214	inactive
